Results from PubChem BioAssay AID330 (DTP/NCI, 2004).
The list is a part of this screen's results and no random one: it is rich in T/C values a quarter to a half above the control, in often repeated tests (any T/C) and in doses without a T/C. Other doses and runs of a compound stand elsewhere. T/C gives the treated animals as a percentage of the vehicle group. Some doses have a count of surviving animals in place of a T/C: the source holds a T/C of zero for them, seemingly a mark for toxic or unscored doses. Some survivor counts are full or nearly so, which does not show that the dose was tolerated: the source hardly ever lists a survival T/C far under the control, and the zero likely stands for such cases as well. Survivors were counted at the toxicity check, usually on the fifth day, unless a day is given; later deaths do not show. Schedule codes are those of the source, read here as Q, the interval in days (D) or hours (H), X, the number of doses. Additions like (4×) say how often a value occurs here. Where survival is the endpoint, this PubChem deposit counts one and a half times the control or more as active, and values a quarter to a half above the control carry no call in these data; other NCI protocols may use other cut-offs. Some entries hold several experiments; the values are given in rising order. Some T/C values are followed by the survivors on the day toxicity was checked, most often the fifth; without a count, all were alive then.

Tested on: P388 leukemia ip, CD2F1 mice, survival T/C
Assay: NCI In Vivo Anticancer Drug Screen. Data for tumor model P388 Leukemia (intraperitoneal) in CD2F1 (CDF1) mice
Conditions: T/C endpoint: median survival time, higher T/C = longer survival
[1] = dose: 200.0 mg/kg/injection, schedule: Q01DX009 (ip), vehicle: other
[2] = dose: 240.0 mg/kg/injection, schedule: Q01DX005 (ip), vehicle: saline with Tween-80
[3] = dose: 200.0 mg/kg/injection, schedule: Q01DX005 (ip), vehicle: saline with Tween-80
[4] = dose: 200.0 mg/kg/injection, schedule: Q01DX005 (ip), vehicle: saline
[5] = dose: 200.0 mg/kg/injection, schedule: Q01DX005 (ip), vehicle: Klucel (hydroxypropylcellulose) (HPC)

SMILES: COC1/C=C/OC2(C)Oc3c(C)c(O)c4c(O)c(c(CNCc5ccccc5)c(O)c4c3C2=O)NC(=O)/C(C)=C\C=C\C(C)C(O)C(C)C(O)C(C)C(OC(C)=O)C1C (stereo not drawn)
- survivor count [1]: 6 of 6

SMILES: COC1CC(OC2CCC3(C)C(=CCC4C3C(OC(C)=O)C(OC(=O)CC(C)C)C3(C)C(C(C)=O)CCC43O)C2)OC(C)C1OC1CC(OC)C(OC2CC(OC)C(OC3OC(C)C(OC4OC(CO)C(O)C(O)C4O)C(OC)C3O)C(C)O2)C(C)O1 (stereo not drawn)
- survivor count (dose: 33.0 mg/kg/injection, schedule: Q01DX005 (ip), vehicle: Klucel (hydroxypropylcellulose) (HPC)): 0 of 6

SMILES: CCC(C)C1NC(=O)C(NC(=O)c2c3nc4c(C(=O)NC5C(=O)NC(C(C)CC)C(=O)N6CCCC6C(=O)N(C)CC(=O)N(C)C(C(C)C)C(=O)OC5C)cc(N)c(C)c4oc-3c(C)c(=O)c2N)C(C)OC(=O)C(C(C)C)N(C)C(=O)CN(C)C(=O)C2CCCN2C1=O (stereo not drawn)
- survivor count (dose: 0.4 mg/kg/injection, schedule: Q01DX009 (ip), vehicle: Klucel (hydroxypropylcellulose) (HPC)): 6 of 6
- survivor count (dose: 0.8 mg/kg/injection, schedule: Q01DX009 (ip), vehicle: Klucel (hydroxypropylcellulose) (HPC)): 6 of 6
- survivor count (dose: 1.6 mg/kg/injection, schedule: Q01DX009 (ip), vehicle: Klucel (hydroxypropylcellulose) (HPC)): 0 of 6
- T/C (dose: 44.0 micrograms/kg/injection, schedule: Q01DX009 (ip), vehicle: water): 125 % of control
- T/C (dose: 66.0 micrograms/kg/injection, schedule: Q01DX009 (ip), vehicle: water): 133 % of control

SMILES: CCOC(CNC(C)c1ccc2cc(OC)c(OC)cc2c1)OCC (stereo not drawn)
- T/C (dose: 400.0 mg/kg/injection, schedule: Q01DX009 (ip), vehicle: Klucel (hydroxypropylcellulose) (HPC)): 142 % of control

SMILES: NCc1c(Cl)c(Cl)c(CN)c(Cl)c1Cl
- survivor count (dose: 200.0 mg/kg/injection, schedule: Q01DX009 (ip), vehicle: saline with Tween-80): 3 of 6

SMILES: CCC1(C)C(C#N)C(=O)NC(=O)C1C#N (stereo not drawn)
- survivor count (dose: 100.0 mg/kg/injection, schedule: Q01DX009 (ip), vehicle: saline with Tween-80): 2 of 6

SMILES: CC(C)(C)c1cc(C(=O)[O-])c([OH2+])c(C(C)(C)C)c1.CC(C)(C)c1cc(C(=O)[O-])c([OH2+])c(C(C)(C)C)c1.[Mn+2]
- survivor count [2]: 0 of 6 (2×)

SMILES: CCOc1ccc(/C=C(\C(=O)c2ccccc2)S(=O)(=O)c2ccc(OC)cc2)cc1OC
- survivor count [3]: 6 of 6

SMILES: S=C1NCC(c2ccc(Cl)cc2)[Se]1 (stereo not drawn)
- survivor count (dose: 200.0 mg/kg/injection, schedule: Q01DX009 (ip), vehicle: DMSO): 2 of 6

SMILES: CC(=NCc1ccccc1)NO
- survivor count [4]: 1 of 6

SMILES: COc1nc(C(Cl)(Cl)Cl)c(Cl)c(OC)c1Cl
- T/C (dose: 37.0 mg/kg/injection, schedule: Q01DX005 (ip), vehicle: Klucel (hydroxypropylcellulose) (HPC), evaluated on day 30): 109 and 141 % of control
- T/C (dose: 37.0 mg/kg/injection, schedule: Q01DX005 (ip), vehicle: Klucel (hydroxypropylcellulose) (HPC), evaluated on day 45): 122 and 130 % of control
- T/C (dose: 37.0 mg/kg/injection, schedule: Q01DX005 (ip), vehicle: Klucel (hydroxypropylcellulose) (HPC), evaluated on day 60): 119 % of control
- T/C (dose: 40.0 mg/kg/injection, schedule: Q01DX005 (ip), vehicle: other, evaluated on day 30): 138 % of control
- T/C (dose: 40.0 mg/kg/injection, schedule: Q01DX005 (ip), vehicle: other, evaluated on day 45): 125 % of control
- T/C (dose: 40.0 mg/kg/injection, schedule: Q01DX005 (iv), vehicle: other): 127 % of control
- T/C (dose: 50.0 mg/kg/injection, schedule: Q01DX005 (ip), vehicle: Klucel (hydroxypropylcellulose) (HPC), evaluated on day 30): 100, 100 [4 of 6 alive], 101, 118, 128, 130 % of control
- T/C (dose: 50.0 mg/kg/injection, schedule: Q01DX005 (ip), vehicle: Klucel (hydroxypropylcellulose) (HPC), evaluated on day 45): 115, 116, 117, 125, 130, 132, 133, 135 % of control
- T/C (dose: 50.0 mg/kg/injection, schedule: Q01DX005 (ip), vehicle: Klucel (hydroxypropylcellulose) (HPC), evaluated on day 46): 120 % of control
- T/C (dose: 50.0 mg/kg/injection, schedule: Q01DX005 (ip), vehicle: Klucel (hydroxypropylcellulose) (HPC), evaluated on day 60): 124 and 126 % of control
- T/C (dose: 60.0 mg/kg/injection, schedule: Q01DX005 (ip), vehicle: other, evaluated on day 30): 141 % of control
- T/C (dose: 60.0 mg/kg/injection, schedule: Q01DX005 (ip), vehicle: other, evaluated on day 45): 138 % of control
- T/C (dose: 67.0 mg/kg/injection, schedule: Q01DX005 (ip), vehicle: Klucel (hydroxypropylcellulose) (HPC), evaluated on day 30): 110 and 155 % of control
- T/C (dose: 67.0 mg/kg/injection, schedule: Q01DX005 (ip), vehicle: Klucel (hydroxypropylcellulose) (HPC), evaluated on day 45): 111, 121, 132, 137, 140, 146, 148, 150 % of control
- T/C (dose: 67.0 mg/kg/injection, schedule: Q01DX005 (ip), vehicle: Klucel (hydroxypropylcellulose) (HPC), evaluated on day 46): 120 % of control
- T/C (dose: 67.0 mg/kg/injection, schedule: Q01DX005 (ip), vehicle: Klucel (hydroxypropylcellulose) (HPC), evaluated on day 60): 142 and 153 % of control
- T/C (dose: 90.0 mg/kg/injection, schedule: Q01DX005 (ip), vehicle: Klucel (hydroxypropylcellulose) (HPC), evaluated on day 30): 111, 157, 160, 173 % of control
- T/C (dose: 90.0 mg/kg/injection, schedule: Q01DX005 (ip), vehicle: Klucel (hydroxypropylcellulose) (HPC), evaluated on day 45): 103, 130, 134, 136, 151, 153, 155, 158 % of control (2×)
- T/C (dose: 90.0 mg/kg/injection, schedule: Q01DX005 (ip), vehicle: Klucel (hydroxypropylcellulose) (HPC), evaluated on day 46): 116 % of control
- T/C (dose: 90.0 mg/kg/injection, schedule: Q01DX005 (ip), vehicle: Klucel (hydroxypropylcellulose) (HPC), evaluated on day 60): 159 and 167 % of control
- T/C (dose: 90.0 mg/kg/injection, schedule: Q01DX005 (ip), vehicle: other): 149 % of control [9 of 10 alive]
- T/C (dose: 90.0 mg/kg/injection, schedule: Q01DX005 (iv), vehicle: other): 144 % of control
- T/C (dose: 100.0 mg/kg/injection, schedule: Q01DX005 (ip), vehicle: Klucel (hydroxypropylcellulose) (HPC)): 115, 121, 156, 163 % of control
- T/C (dose: 120.0 mg/kg/injection, schedule: Q01DX005 (ip), vehicle: Klucel (hydroxypropylcellulose) (HPC), evaluated on day 45): 98, 145, 152, 158, 179, 191 % of control
- T/C (dose: 120.0 mg/kg/injection, schedule: Q01DX005 (ip), vehicle: Klucel (hydroxypropylcellulose) (HPC), evaluated on day 46): 134 % of control
- T/C (dose: 120.0 mg/kg/injection, schedule: Q01DX005 (ip), vehicle: Klucel (hydroxypropylcellulose) (HPC), evaluated on day 60): 177 % of control
- T/C (dose: 135.0 mg/kg/injection, schedule: Q01DX005 (ip), vehicle: Klucel (hydroxypropylcellulose) (HPC)): 131 % of control
- T/C [5]: 102, 115, 147, 194 % of control
- survivor count [5]: 9 of 10
- T/C (dose: 202.3 mg/kg/injection, schedule: Q01DX005 (ip), vehicle: Klucel (hydroxypropylcellulose) (HPC)): 138 % of control
- survivor count (dose: 300.0 mg/kg/injection, schedule: Q01DX005 (ip), vehicle: Klucel (hydroxypropylcellulose) (HPC)): 9 of 10
- survivor count (dose: 303.3 mg/kg/injection, schedule: Q01DX005 (ip), vehicle: Klucel (hydroxypropylcellulose) (HPC)): 8 of 10
- survivor count (dose: 400.0 mg/kg/injection, schedule: Q01DX005 (ip), vehicle: Klucel (hydroxypropylcellulose) (HPC)): 4 of 6

SMILES: Cc1c(O)c2c(c(O)c1Cc1cccc(C#N)c1)C(=O)c1ccccc1C2=O
- survivor count (dose: 12.5 mg/kg/injection, schedule: Q01DX009 (ip), vehicle: other): 6 of 6
- survivor count (dose: 50.0 mg/kg/injection, schedule: Q01DX009 (ip), vehicle: other): 6 of 6
- survivor count (dose: 100.0 mg/kg/injection, schedule: Q01DX009 (ip), vehicle: other): 6 of 6
- survivor count [1]: 6 of 6

SMILES: COc1c2occc2c(CCl)c2ccc(=O)oc12
- survivor count (dose: 120.0 mg/kg/injection, schedule: Q01DX005 (ip), vehicle: Klucel (hydroxypropylcellulose) (HPC)): 4 of 6
- survivor count (dose: 240.0 mg/kg/injection, schedule: Q01DX005 (ip), vehicle: Klucel (hydroxypropylcellulose) (HPC)): 0 of 6

SMILES: CCOc1cccc(C=N)c1O
- survivor count [2]: 0 of 6

SMILES: CCOC(=O)c1cc(N)c(C(=O)OCC)cc1N
- survivor count (dose: 50.0 mg/kg/injection, schedule: Q01DX009 (ip), vehicle: saline with Tween-80): 6 of 6

SMILES: C[N+](C)(C)CCNP(=O)(Oc1ccccc1)c1ccccc1 (stereo not drawn)
- survivor count [3]: 2 of 6

SMILES: C1CCN2COCC2C1 (stereo not drawn)
- T/C (dose: 50.0 mg/kg/injection, schedule: Q01DX005 (ip), vehicle: saline): 127 and 131 % of control
- survivor count [4]: 0 of 6
